No constants are given. Whether binding was seen depends on the method and setting. Some entries that bind do so weakly or less than the wild type.
Biological target: butyrylcholine esterase (human (endogenous in plasma)) (UniProt P06276)
Assay: multiplexed sandwich immunoassay

Sequences of proteins named here, by UniProt entry; tags and fusion partners are left off. Residues count along the entry.
UniProt P06276, residues 29-602: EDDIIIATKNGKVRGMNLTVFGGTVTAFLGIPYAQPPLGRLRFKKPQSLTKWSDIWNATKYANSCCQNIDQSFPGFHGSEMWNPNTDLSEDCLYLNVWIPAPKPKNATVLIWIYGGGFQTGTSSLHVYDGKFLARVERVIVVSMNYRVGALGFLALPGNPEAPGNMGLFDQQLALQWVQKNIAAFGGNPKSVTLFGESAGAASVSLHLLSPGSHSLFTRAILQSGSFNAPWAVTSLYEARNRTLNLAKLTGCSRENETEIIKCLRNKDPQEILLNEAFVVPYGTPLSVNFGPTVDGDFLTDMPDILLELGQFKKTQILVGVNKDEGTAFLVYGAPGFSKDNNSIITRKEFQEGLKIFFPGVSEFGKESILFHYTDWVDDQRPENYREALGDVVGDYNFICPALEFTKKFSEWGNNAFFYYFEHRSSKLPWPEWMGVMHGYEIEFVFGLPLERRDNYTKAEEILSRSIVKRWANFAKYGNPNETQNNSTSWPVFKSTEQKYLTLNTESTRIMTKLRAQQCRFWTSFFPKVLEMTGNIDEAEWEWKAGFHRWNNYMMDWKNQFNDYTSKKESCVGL
UniProt P18065, residues 36-325: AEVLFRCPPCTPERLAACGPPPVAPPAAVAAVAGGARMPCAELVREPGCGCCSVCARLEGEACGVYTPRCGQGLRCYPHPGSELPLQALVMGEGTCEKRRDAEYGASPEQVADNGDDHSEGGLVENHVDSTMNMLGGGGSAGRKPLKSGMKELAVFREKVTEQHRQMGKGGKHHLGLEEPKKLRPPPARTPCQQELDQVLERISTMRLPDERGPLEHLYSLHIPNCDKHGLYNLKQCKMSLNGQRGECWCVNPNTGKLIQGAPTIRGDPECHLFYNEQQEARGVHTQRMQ

## insulin growth factor binding protein 2 (from UniProt P18065 36-325)
  binding: binds

Reference: publication doi:10.1101/158022
